Assay results taken from the supplement of paper PMC4604168 (melanoma cell lines).
This is one part of the list. Many values rest on one well or one pass, so single values are uncertain.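 Cells were imaged in 1,536-well plates, and nuclei stained with an antibody against cleaved PARP were counted against all DNA-stained nuclei to give the apoptosis fraction. Screening doses were chosen to leave most cells alive, and resting and induced cleaved-PARP levels differ strongly between cell lines.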

These compounds were tested on WM3619 (assay: cleaved PARP positive nuclei fraction relative to DMSO control; melanoma cells; higher = more apoptosis). Conditions: library dose: low library concentration; 72 h.

Row | Compound | cleaved PARP positive nuclei fraction [%]
1 | Cc1nc(Nc2ncc(C(=O)Nc3c(C)cccc3Cl)s2)cc(N2CCN(CCO)CC2)n1 [dasatanib] + COc1cc2c(Oc3ccc4[nH]c(C)cc4c3F)ncnc2cc1OCCCN1CCCC1 [cediranib] (first compound 0.004 µM, partner dose 0.4 µM) | 101
2 | OCc1c[nH]c2ccccc12 [Indole-3-carbinol] + CO[C@@H]1[C@H](N(C)C(=O)c2ccccc2)C[C@H]2O[C@]1(C)n1c3ccccc3c3c4c(c5c6ccccc6n2c5c31)C(=O)NC4 [Midostaurin] (first compound 0.8 µM, partner dose 0.08 µM) | 97.9
3 | C=CCNC1=C2C[C@@H](C)C[C@H](OC)[C@H](O)[C@@H](C)/C=C(\C)[C@H](OC(N)=O)[C@@H](OC)/C=C\C=C(/C)C(=O)NC(=CC1=O)C2=O [Tanespimycin] + Cc1cc([N+](=O)[O-])ccc1NS(=O)(=O)c1cc(Cl)ccc1Cl [FH535] (first compound 0.002 µM, partner dose 1 µM) | 91.4
4 | Cc1cc(N2CCOCC2)cc2[nH]c(-c3c(NC[C@@H](O)c4cccc(Cl)c4)cc[nH]c3=O)nc12 + C[C@@H]1CCN(C(=O)CC#N)C[C@@H]1N(C)c1ncnc2[nH]ccc12 [CP690550] (first compound 0.2 µM, partner dose 1 µM) | 176
5 | O=C(CCCCCCC(=O)Nc1ccccc1)NO [vorinostat] + C[C@@H]1CCN(C(=O)CC#N)C[C@@H]1N(C)c1ncnc2[nH]ccc12 [CP690550] (first compound 0.08 µM, partner dose 1 µM) | 102
6 | Cc1cc(N2CCOCC2)cc2[nH]c(-c3c(NC[C@@H](O)c4cccc(Cl)c4)cc[nH]c3=O)nc12 + CCc1ccc(CCOc2ccc(CC3SC(=O)NC3=O)cc2)nc1 [pioglitazone] (first compound 0.2 µM, partner dose 2 µM) | 97.8
7 | O=C(CCCCCCC(=O)Nc1ccccc1)NO [vorinostat] + OCCn1cc(-c2cnc3nnn(Cc4ccc5ncccc5c4)c3n2)cn1 [PF04217903] (first compound 0.08 µM, partner dose 1 µM) | 95.3
8 | Cc1cc(N2CCOCC2)cc2[nH]c(-c3c(NC[C@@H](O)c4cccc(Cl)c4)cc[nH]c3=O)nc12 + Cc1cc([N+](=O)[O-])ccc1NS(=O)(=O)c1cc(Cl)ccc1Cl [FH535] (first compound 0.2 µM, partner dose 1 µM) | 94.2
9 | CC(=O)c1c(C)c2cnc(Nc3ccc(N4CCNCC4)cn3)nc2n(C2CCCC2)c1=O [palbociclib] + Nc1cccc2c1CN(C1CCC(=O)NC1=O)C2=O [lenalidomide] (first compound 0.04 µM, partner dose 1 µM) | 169
10 | C=CCNC1=C2C[C@@H](C)C[C@H](OC)[C@H](O)[C@@H](C)/C=C(\C)[C@H](OC(N)=O)[C@@H](OC)/C=C\C=C(/C)C(=O)NC(=CC1=O)C2=O [Tanespimycin] + COC(=O)c1sccc1S(=O)(=O)Nc1ccc(Nc2ccccc2)cc1OC [GSK0660] (first compound 0.002 µM, partner dose 1 µM) | 111
11 | Clc1ccc(Nc2nnc(Cc3ccncc3)c3ccccc23)cc1 [vatalanib] + C[C@]1(c2nc3c(C(N)=O)cccc3[nH]2)CCCN1 [Veliparib] (first compound 2 µM, partner dose 1.4 µM) | 120
12 | COCC[n+]1c2c(n(Cc3cnccn3)c1C)C(=O)c1ccccc1C2=O + NC(=O)Nc1cc(-c2cccc(F)c2)sc1C(=O)N[C@H]1CCCNC1 [AZD7762] (first compound 0.0004 µM, partner dose 0.02 µM) | 162
13 | Cn1c(Nc2ccc(C(F)(F)F)cc2)nc2cc(Oc3ccnc(-c4ncc(C(F)(F)F)[nH]4)c3)ccc21 + CCN(CC)CCCCNc1ncc2cc(-c3cc(OC)cc(OC)c3)c(NC(=O)NC(C)(C)C)nc2n1 [PD173074] (first compound 0.08 µM, partner dose 0.1 µM) | 141
14 | CC(C)(C)c1cnc(CSc2cnc(NC(=O)C3CCNCC3)s2)o1 + CCc1ccc(CCOc2ccc(CC3SC(=O)NC3=O)cc2)nc1 [pioglitazone] (first compound 0.01 µM, partner dose 2 µM) | 69.8
15 | C[C@]1(c2nc3c(C(N)=O)cccc3[nH]2)CCCN1 [Veliparib] + COc1ccc(COc2ccc(Cc3cnc(N)nc3N)cc2OC)cc1 [GW2580] (first compound 1.4 µM, partner dose 1 µM) | 91.1
16 | Cc1ccc(NC(=O)c2cccc(N(C)C)c2)cc1NC(=O)c1ccc(O)cc1 + NCC(=O)Nc1ccc(-n2nc(C(F)(F)F)cc2-c2ccc3c(ccc4ccccc43)c2)cc1 [OSU03012] (first compound 2 µM, partner dose 1 µM) | 99.4

Reformatted in markdown: part of the list above.

| Row | Compound | cleaved PARP positive nuclei fraction [%] |
| --- | --- | --- |
| 1 | Cc1nc(Nc2ncc(C(=O)Nc3c(C)cccc3Cl)s2)cc(N2CCN(CCO)CC2)n1 [dasatanib] + COc1cc2c(Oc3ccc4[nH]c(C)cc4c3F)ncnc2cc1OCCCN1CCCC1 [cediranib] (first compound 0.004 µM, partner dose 0.4 µM) | 101 |
| 15 | C[C@]1(c2nc3c(C(N)=O)cccc3[nH]2)CCCN1 [Veliparib] + COc1ccc(COc2ccc(Cc3cnc(N)nc3N)cc2OC)cc1 [GW2580] (first compound 1.4 µM, partner dose 1 µM) | 91.1 |
